Experimental data as given in PubChem BioAssay AID504834 (National Center for Advancing Translational Sciences (NCATS), 2011).
In all, about 320,000 compounds went through this assay and about 22,000 (6.9%) were called active. Inconclusive means that the source gave no clear call. Such entries were picked first, then a sample of the others. Calls follow the shape of the dose curve; as a rule, active = well fitted inhibition curve with a large enough effect; inconclusive = small, poorly fitted or top-dose-only effect, or another doubt; inactive = no such curve, though single readings can be large or run the other way. Potencies of inconclusive entries are doubtful fits and often do not repeat.
% is scaled to controls: 0 for no effect and ±100 for the full control effect; potency is read from the fitted curve at half-maximal effect.

Test: Primary qHTS for delayed death inhibitors of the malarial parasite plastid, 96 hour incubation
Conditions: P. falciparum luciferase reporter growth; series mostly up to 28.7 µM; activity change, negative = inhibition: at the top concentration
In short: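 96 h incubation, 37 C, 5% CO2, of luciferase-reporter P. falciparum-infected RBCs (2% hematocrit, 0.05% parasitemia final) with test compounds; endpoint luminescence.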
For `O=C1NC(=O)C(CCc2ccncc2)(CCc2ccncc2)C(=O)N1CCc1ccccc1`, the Potency was active: 2.94 µM. For `COc1ccc(-n2ncc3c(N4CCN(c5cc(C)ccc5C)CC4)ncnc32)cc1`, the Potency was inconclusive: 13.1 µM [inhibitor, single point]. For `O=C(C1=C[C@@H]2[C@H]3C(=O)N(c4ccccc4)C(=O)[C@H]3[C@@H](C(=O)c3ccc(Cl)cc3)N2C=C1)c1ccccc1`, the Potency was inconclusive: 14.7 µM [inhibitor, single point]. With `CC(=O)N1CCCC(N2CCN(c3cccc(C(F)(F)F)c3)CC2)C1` (centres undefined) the Potency was inconclusive: 10.4 µM [inhibitor, partial curve]. In the case of `Cc1c(NC(=O)CSCc2ccco2)c(=O)n(-c2ccccc2)n1C`, the “activity change, negative = inhibition” value is reported as inactive: 39.5%. For `Cc1cc(Nc2ccc([N+](=O)[O-])cc2)c2ccccc2n1`, the Potency was inconclusive: 20.8 µM [inhibitor, partial curve, poor fit]. With `CCc1nc(NCCN2CCOCC2)c2oc3ccccc3c2n1` the Potency was inconclusive: 13.1 µM [inhibitor, single point]. In the case of `NS(=O)(=O)c1ccc(NC(=S)NC2CC2)cc1`, the Potency is reported as inconclusive: 4.15 µM [inhibitor, partial curve, poor fit]. With `CCOC(=O)C1=C(CN2c3ccccc3CC2C)NC(=O)NC1c1ccccc1` (centres undefined) the Potency was inconclusive: 9.28 µM [inhibitor, partial curve, poor fit]. For `O=C(N/N=C/c1cc([N+](=O)[O-])ccc1O)C1CCCCC1`, the Potency was inconclusive: 10.4 µM [inhibitor, single point]. For `COCc1cc(C)nc(SCC(=O)Nc2cc3c(cc2C#N)OCO3)c1C#N`, the “activity change, negative = inhibition” value was inactive: 12%. In the case of `COc1ccc(C)cc1S(=O)(=O)N1CCC2(CC1)OCCN2S(=O)(=O)c1ccccc1`, the “activity change, negative = inhibition” value is reported as inactive: 8.29%. With `COC(=O)c1ccc(C2C(C#N)=C(N)Oc3cc(N)ccc32)cc1` (centres undefined) the Potency was active: 11.7 µM. In the case of `O=c1c2ccccc2nc(C[n+]2ccccc2)n1-c1cccc(C(F)(F)F)c1`, the Potency is reported as active: 11.7 µM. For `Cc1ccc(C(=O)OCC(=O)N2CCc3ccccc32)cc1`, the “activity change, negative = inhibition” value was inactive: 65.8%. With `CC(C)OCCCNC(=O)C1CCC(=O)N1C(C)C` (centres undefined) the Potency was inconclusive: 11.7 µM [inhibitor, partial curve]. With `O=C(Cn1nnc2ccccc2c1=O)NC1CCCCC1` the “activity change, negative = inhibition” value was inactive: 14.7%. With `N#C/C(=C\c1cccc(NC(=O)c2ccccc2Cl)c1)C(=O)NCCc1ccccc1` the Potency was inconclusive: 10.4 µM [inhibitor, single point]. In the case of `CCOC(=O)C1=C(C)N(CC)C(=S)NC1c1ccccc1OC(F)F` (centres undefined), the Potency is reported as inconclusive: 6.57 µM [inhibitor, partial curve, poor fit]. In the case of `CCCCCn1c(N(C)Cc2ccccc2)nc2c1c(=O)[nH]c(=O)n2C`, the Potency is reported as inconclusive: 13.1 µM [inhibitor, partial curve, poor fit]. For `Cc1ccc(N(CC(=O)N2CCc3ccccc32)C2=NC(=O)CS2)cc1`, the Potency was active: 9.28 µM. With `CC1CCCN(C(=O)COc2ccc(Nc3ccccc3)cc2)C1` (centres undefined) the “activity change, negative = inhibition” value was inactive: -0.471%. In the case of `Cc1cnc(NC(=O)CN(C)S(=O)(=O)c2ccc(Cl)cc2)s1`, the Potency is reported as inconclusive: 0.928 µM [inhibitor, partial curve, poor fit]. With `O=C(CN1CCN(c2ncc(C(F)(F)F)cc2Cl)CC1)N1CCN(c2ncc(C(F)(F)F)cc2Cl)CC1` the Potency was active: 11.7 µM. For `COc1ccc(CNc2nc3nc(-c4ccccc4)cc(=O)n3[nH]2)cc1OC`, the Potency was inconclusive: 13.1 µM [inhibitor, single point]. For `COC(=O)c1ccc(COc2ccccc2/C=C(\C#N)C(=O)Nc2ccc(C)cc2C)cc1`, the “activity change, negative = inhibition” value was inactive: -18.8%. With `COc1ccccc1-c1cc(C2CC2)nc(N)c1C#N` the Potency was inconclusive: 18.5 µM [inhibitor, single point]. With `CCCNC(=O)c1cc2c3ccccc3n(C)c2s1` the Potency was inconclusive: 18.5 µM [inhibitor, single point]. In the case of `Cc1cc(N2C(=O)C(O)=C(C(=O)c3cccs3)C2c2cccc(Br)c2)no1` (centres undefined), the Potency is reported as inconclusive: 2.62 µM [inhibitor, single point]. For `CCOC(=O)N1CCN(C(=O)C(C)N(c2ccc(Oc3ccccc3)cc2)S(C)(=O)=O)CC1` (centres undefined), the Potency was inconclusive: 2.94 µM [inhibitor, full curve, poor fit]. In the case of `Cc1ncoc1C(=O)N1CCCC(C(=O)c2ccc3c4c(cccc24)CC3)C1` (centres undefined), the Potency is reported as inconclusive: 16.5 µM [inhibitor, partial curve, poor fit]. For `O=C(CSc1ccccc1)NNC(=O)c1ccccc1O`, the Potency was inconclusive: 0.415 µM [inhibitor, full curve, poor fit]. With `CSCCC(NC(=O)c1ccccc1Cl)C(=O)OCC(=O)N1CCCC1=O` (centres undefined) the “activity change, negative = inhibition” value was inactive: -1.7%. With `Cc1cccc(N2CCN(c3nnnn3-c3ccccc3)CC2C)c1` (centres undefined) the Potency was active: 5.86 µM. For `Cc1ccc(-c2nn(-c3ccccc3)cc2/C=N/n2c(-c3ccncc3)n[nH]c2=S)cc1`, the Potency was inconclusive: 10.4 µM [inhibitor, partial curve]. In the case of `CN(C)S(=O)(=O)c1ccc(/C(O)=C2/C(=O)C(=O)N(Cc3cccnc3)C2c2ccco2)cc1` (centres undefined), the Potency is reported as active: 8.28 µM. For `CCOc1ccc(C2=Nn3c(nnc3-c3ccccn3)SC2)cc1`, the Potency was inconclusive: 11.7 µM [inhibitor, single point]. For `CCOC(=O)c1c(-c2ccccc2)oc2ccc(OCC(O)CNCCN(C)C)cc12` (centres undefined), the Potency was inconclusive: 2.08 µM [inhibitor, full curve, poor fit]. For `CSc1nc2ccc(NC(=O)c3ccccn3)cc2s1`, the “activity change, negative = inhibition” value was inactive: 69.9%. With `CCOc1ccccc1NC(=O)COC(=O)c1cc[n+]([O-])cc1` the “activity change, negative = inhibition” value was inactive: -5.07%. In the case of `COc1ccc(-c2nc(N)ncc2-c2csc(C)n2)c(O)c1`, the Potency is reported as inconclusive: 18.5 µM [inhibitor, single point]. For `C=CCn1c(SCn2nnc3ccccc3c2=O)nc2scc(-c3cccs3)c2c1=O`, the Potency was active: 2.94 µM. With `CC(=O)c1ccc(NC(=O)CN2C(=O)/C(=C/C(C)=C/c3ccccc3)SC2=S)cc1` the Potency was inconclusive: 4.15 µM [inhibitor, single point]. In the case of `Nc1scn[n+]1Cc1cccc2cccnc12`, the Potency is reported as inconclusive: 18.5 µM [inhibitor, single point].
